# Results: the supplement of paper PMC8728848
# Some of the results follow.
# B1: CcfD (Bacteroides vulgatus), A6KYX8 (protein)
# chain: MKYKNYFKSIIYLALGAFTLGSCEDFLDRQEDEKLTFDKIWESRNTTQQYWLNAMSFLPNENGSLQGDTEPYLGASDECTIAYDRQYRWINFGTWNPSQVPYYKMDHYYKGIRECNIFLQNVYKCSDPLVTKDQLDEWYWQTRFARAYYYFLMMRDYGPVFLLGDDLLDFTASTEELYRPRNTWDQCVNYVVSEMTQCAESGVVLQQSDLPAAKWGLATVGTCHAVISRLLLYSARPLFNGNKLYSTVKNPDAPDFPELSGVKLFPELDNTKWQKAAEAAKKLIDNPCYELYRAGNDNPYEDYYGVTHETWNKELIWTDRYNGLFSWGVGTVPTGVAGTAYGAVGPTQALVDAYAMNTGWYPITGYEADGTPIVEPLSGYELASELEKSSWIYPSGGWSNKADFEIEAPNMYKDREPRFYVTVFFGGNQWLHGNSATSISFAKGGNGNKSHDYPKSGYLCNRFYDHKLNSSEGQWGNITFPVFRLGEIYLNFIEAVLECKKNGVALDPSYEALAMEKWADLRKRAGLDPITSIYGQVSTEELIQLCRKERQIELAFERHRYFDTRTWMIATQTDNGKMYGMNTSCPLDAGMKGTETPDGFWERTAFETRVFQNKHYLYPFSQRELDRNKLLTQNYGW
# Tests used:
# Assay in all cases: glycan array binding signal (z-score within array); higher = stronger binding
# Conditions in all cases: glycan notation: IUPAC condensed, linker removed
# [1] = target: Neu5Ac(a2-6)Gal(b1-4)GlcNAc(b1-2)Man(a1-3)[Man(a1-6)]Man(b1-4)GlcNAc(b1-4)GlcNAc
# Procedure, shortened: (§1)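 Glycan array binding is given as a within-array Z-score, which can be read as non-binding when negative. The arrays, 3228 of them, came from the Consortium for Functional Glycomics database and were retained only where the protein sequence was available. Z-scores were averaged across arrays of the same protein sequence at different concentrations or buffers and across linkers.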
# [2] = target: Neu5Ac(a2-6)Gal(b1-4)GlcNAc(b1-2)Man(a1-3)[Neu5Ac(a2-3)Gal(b1-4)GlcNAc(b1-2)Man(a1-6)]Man(b1-4)GlcNAc(b1-4)GlcNAc
# Procedure, shortened: as §1
# [3] = target: Neu5Ac(a2-6)Gal(b1-4)GlcNAc(b1-2)Man(a1-3)[Neu5Ac(a2-6)Gal(b1-4)GlcNAc(b1-2)Man(a1-6)]Man(b1-4)GlcNAc(b1-4)GlcNAc
# Procedure, shortened: as §1
# [4] = target: Neu5Ac(a2-6)Gal(b1-4)GlcNAc(b1-2)Man(a1-3)[Neu5Ac(a2-6)Gal(b1-4)GlcNAc(b1-2)Man(a1-6)]Man(b1-4)GlcNAc(b1-4)[Fuc(a1-6)]GlcNAc
# Procedure, shortened: as §1
# [5] = target: Neu5Ac(a2-6)Gal(b1-4)GlcNAc(b1-2)Man(a1-6)Man(b1-4)GlcNAc(b1-4)GlcNAc
# Procedure, shortened: as §1
# [6] = target: Neu5Ac(a2-6)Gal(b1-4)GlcNAc(b1-2)Man(a1-6)[Gal(b1-4)GlcNAc(b1-2)Man(a1-3)]Man(b1-4)GlcNAc(b1-4)GlcNAc
# Procedure, shortened: as §1
# [7] = target: Neu5Ac(a2-6)Gal(b1-4)GlcNAc(b1-2)Man(a1-6)[GlcNAc(b1-2)Man(a1-3)]Man(b1-4)GlcNAc(b1-4)GlcNAc
# Procedure, shortened: as §1
# [8] = target: Neu5Ac(a2-6)Gal(b1-4)GlcNAc(b1-2)Man(a1-6)[Man(a1-3)]Man(b1-4)GlcNAc(b1-4)GlcNAc
# Procedure, shortened: as §1
# [9] = target: Neu5Ac(a2-6)Gal(b1-4)GlcNAc(b1-2)[Neu5Ac(a2-6)Gal(b1-4)GlcNAc(b1-4)]Man(a1-3)[GlcNAc(b1-4)][Neu5Ac(a2-6)Gal(b1-4)GlcNAc(b1-2)[Neu5Ac(a2-6)Gal(b1-4)GlcNAc(b1-6)]Man(a1-6)]Man(b1-4)GlcNAc(b1-4)GlcNAc
# Procedure, shortened: as §1
# [10] = target: Neu5Ac(a2-6)Gal(b1-4)GlcNAc(b1-2)[Neu5Ac(a2-6)Gal(b1-4)GlcNAc(b1-4)]Man(a1-3)[GlcNAc(b1-4)][Neu5Ac(a2-6)Gal(b1-4)GlcNAc(b1-4)Man(a1-6)]Man(b1-4)GlcNAc(b1-4)GlcNAc
# Procedure, shortened: as §1
# [11] = target: Neu5Ac(a2-6)Gal(b1-4)GlcNAc(b1-2)[Neu5Ac(a2-6)Gal(b1-4)GlcNAc(b1-6)]Man(a1-6)[Neu5Ac(a2-6)Gal(b1-4)GlcNAc(b1-2)Man(a1-3)][GlcNAc(b1-4)]Man(b1-4)GlcNAc(b1-4)GlcNAc
# Procedure, shortened: as §1
# [12] = target: Neu5Ac(a2-6)Gal(b1-4)GlcNAc(b1-3)Gal(b1-3)GlcNAc
# Procedure, shortened: as §1
# [13] = target: Neu5Ac(a2-6)Gal(b1-4)GlcNAc(b1-3)Gal(b1-4)GlcNAc
# Procedure, shortened: as §1
# [14] = target: Neu5Ac(a2-6)Gal(b1-4)GlcNAc(b1-3)Gal(b1-4)GlcNAc(b1-2)Man(a1-3)[Neu5Ac(a2-6)Gal(b1-4)GlcNAc(b1-3)Gal(b1-4)GlcNAc(b1-2)Man(a1-6)]GalNAc
# Procedure, shortened: as §1
# [15] = target: Neu5Ac(a2-6)Gal(b1-4)GlcNAc(b1-3)Gal(b1-4)GlcNAc(b1-3)Gal(b1-4)GlcNAc
# Procedure, shortened: as §1
# [16] = target: Neu5Ac(a2-6)Gal(b1-4)GlcNAc(b1-3)Gal(b1-4)GlcNAc(b1-3)Gal(b1-4)GlcNAc(b1-2)Man(a1-3)[Neu5Ac(a2-6)Gal(b1-4)GlcNAc(b1-3)Gal(b1-4)GlcNAc(b1-3)Gal(b1-4)GlcNAc(b1-2)Man(a1-6)]GalNAc
# Procedure, shortened: as §1
# [17] = target: Neu5Ac(a2-6)Gal(b1-4)GlcNAc(b1-3)Gal(b1-4)GlcNAc(b1-3)GalNAc
# Procedure, shortened: as §1
# [18] = target: Neu5Ac(a2-6)Gal(b1-4)GlcNAc(b1-3)Gal(b1-4)GlcNAc(b1-3)[Neu5Ac(a2-6)Gal(b1-4)GlcNAc(b1-3)Gal(b1-4)GlcNAc(b1-6)]GalNAc
# Procedure, shortened: as §1
# [19] = target: Neu5Ac(a2-6)Gal(b1-4)GlcNAc(b1-3)Gal(b1-4)GlcNAc(b1-6)[Gal(b1-3)]GalNAc
# Procedure, shortened: as §1
# [20] = target: Neu5Ac(a2-6)Gal(b1-4)GlcNAc(b1-3)Gal(b1-4)[Fuc(a1-3)]GlcNAc(b1-3)Gal(b1-4)[Fuc(a1-3)]GlcNAc
# Procedure, shortened: as §1
# [21] = target: Neu5Ac(a2-6)Gal(b1-4)GlcNAc(b1-3)GalNAc
# Procedure, shortened: as §1
# [22] = target: Neu5Ac(a2-6)Gal(b1-4)GlcNAc(b1-3)[Neu5Ac(a2-6)Gal(b1-4)GlcNAc(b1-6)]GalNAc
# Procedure, shortened: as §1
# [23] = target: Neu5Ac(a2-6)Gal(b1-4)GlcNAc(b1-6)GalNAc
# Procedure, shortened: as §1
# [24] = target: Neu5Ac(a2-6)Gal(b1-4)GlcNAc(b1-6)[Gal(b1-3)GlcNAc(b1-3)]Gal(b1-4)Glc
# Procedure, shortened: as §1
# [25] = target: Neu5Ac(a2-6)Gal(b1-4)GlcNAc(b1-6)[Gal(b1-3)]GalNAc
# Procedure, shortened: as §1
# [26] = target: Neu5Ac(a2-6)Gal(b1-4)GlcNAc6S
# Procedure, shortened: as §1
# [27] = target: Neu5Ac(a2-6)GalNAc
# Procedure, shortened: as §1
# [28] = target: Neu5Ac(a2-6)GalNAc(b1-4)GlcNAc
# Procedure, shortened: as §1
# [29] = target: Neu5Ac(a2-6)GalNAc(b1-4)GlcNAc6S
# Procedure, shortened: as §1
# [30] = target: Neu5Ac(a2-6)GlcNAc(b1-4)GlcNAc
# Procedure, shortened: as §1
# [31] = target: Neu5Ac(a2-6)GlcNAc(b1-4)GlcNAc(b1-4)GlcNAc
# Procedure, shortened: as §1
binder,measurement,setting,value
B1,glycan array binding signal (z-score),[1],-0.398
same,glycan array binding signal (z-score),[2],-1.01
same,glycan array binding signal (z-score),[3],-0.365
same,glycan array binding signal (z-score),[4],-0.236
same,glycan array binding signal (z-score),[5],-0.947
same,glycan array binding signal (z-score),[6],6.49
same,glycan array binding signal (z-score),[7],7
same,glycan array binding signal (z-score),[8],-0.861
same,glycan array binding signal (z-score),[9],-0.332
same,glycan array binding signal (z-score),[10],-0.708
same,glycan array binding signal (z-score),[11],-0.576
same,glycan array binding signal (z-score),[12],-0.881
same,glycan array binding signal (z-score),[13],-0.998
same,glycan array binding signal (z-score),[14],-0.505
same,glycan array binding signal (z-score),[15],-0.866
same,glycan array binding signal (z-score),[16],1.32
same,glycan array binding signal (z-score),[17],-0.398
same,glycan array binding signal (z-score),[18],1.19
same,glycan array binding signal (z-score),[19],-0.841
same,glycan array binding signal (z-score),[20],-1.07
same,glycan array binding signal (z-score),[21],1.42
same,glycan array binding signal (z-score),[22],-0.109
same,glycan array binding signal (z-score),[23],-0.617
same,glycan array binding signal (z-score),[24],1.82
same,glycan array binding signal (z-score),[25],-0.546
same,glycan array binding signal (z-score),[26],2.04
same,glycan array binding signal (z-score),[27],0.171
same,glycan array binding signal (z-score),[28],-0.78
same,glycan array binding signal (z-score),[29],-0.358
same,glycan array binding signal (z-score),[30],0.582
same,glycan array binding signal (z-score),[31],0.328

# Fetched one by one from above, 2 records:
binder,measurement,setting,value
B1,glycan array binding signal (z-score),[24],1.82
same,glycan array binding signal (z-score),[15],-0.866
